US20260183408A1, “POLYPEPTIDE AND USE THEREOF” (SHENZHEN CHENYANG BIOLOGICAL TECHNOLOGY CO., LTD, priority 2022, published 2026)
Results are given in words; binding and its absence hold for the method and conditions named. In cells and extracts the contact can be indirect. Some binding calls cover weakened binding; strength is not graded here.

Protein sequences, listed by entry. Tags and fused reporters are not part of them. Lines headed by an entry give the natural chain unless they say otherwise; changes in a name come on top. Residues count along the entry.
UniProt P34968, residues 33-459: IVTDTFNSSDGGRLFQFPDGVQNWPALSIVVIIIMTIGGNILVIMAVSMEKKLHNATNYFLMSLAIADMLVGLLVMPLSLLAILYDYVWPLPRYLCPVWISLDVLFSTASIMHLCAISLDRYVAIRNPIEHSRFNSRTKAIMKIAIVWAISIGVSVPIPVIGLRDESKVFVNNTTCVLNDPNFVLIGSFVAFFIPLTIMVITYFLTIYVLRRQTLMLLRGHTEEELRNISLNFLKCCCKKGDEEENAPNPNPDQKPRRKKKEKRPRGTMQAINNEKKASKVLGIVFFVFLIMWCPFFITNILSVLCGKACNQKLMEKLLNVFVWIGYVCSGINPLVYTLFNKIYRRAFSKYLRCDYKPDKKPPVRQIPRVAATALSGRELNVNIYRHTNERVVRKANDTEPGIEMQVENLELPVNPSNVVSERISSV
UniProt P14416: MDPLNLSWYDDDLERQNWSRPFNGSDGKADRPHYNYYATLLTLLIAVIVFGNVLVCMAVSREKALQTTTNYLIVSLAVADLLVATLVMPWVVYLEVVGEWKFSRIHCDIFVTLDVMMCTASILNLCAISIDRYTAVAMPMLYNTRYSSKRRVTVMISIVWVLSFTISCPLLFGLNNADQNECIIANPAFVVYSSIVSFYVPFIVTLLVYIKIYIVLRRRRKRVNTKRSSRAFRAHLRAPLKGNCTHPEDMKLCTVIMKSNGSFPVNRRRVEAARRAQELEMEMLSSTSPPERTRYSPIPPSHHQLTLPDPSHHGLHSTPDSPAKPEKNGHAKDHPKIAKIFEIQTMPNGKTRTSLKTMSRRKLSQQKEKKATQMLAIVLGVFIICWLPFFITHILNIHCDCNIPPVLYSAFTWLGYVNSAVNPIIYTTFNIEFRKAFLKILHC

Target: 5-HT2CR, endogenous in mouse hippocampal tissue (mouse) (UniProt P34968)
Experiment: GST pulldown from mouse hippocampal tissue extract, Western blot

Q: Which binding does the source give for “GST fusion protein containing the IL3 region of D2R (GST-D2R-IL3) (from UniProt P14416 211-373)” here?
A: The binding was “binds”.

Q: With “GST fusion protein containing the KVC region of D2R (GST-D2R-KVC) (from UniProt P14416 211-270)” as the substance, how does the binding read?
A: The binding was “binds”.
